Assay results as given in paper PMC2814829.
These are yes or no findings as the source states them, for the method shown. Some binding calls cover weakened binding; strength is not graded here. Sequences can lack the tags named with a protein.

Target: T1, LexA-BD-CED-2 (full-length CED-2/CrkII fused to the LexA DNA binding domain) (C. elegans) (UniProt Q9NHC3)
T1 sequence: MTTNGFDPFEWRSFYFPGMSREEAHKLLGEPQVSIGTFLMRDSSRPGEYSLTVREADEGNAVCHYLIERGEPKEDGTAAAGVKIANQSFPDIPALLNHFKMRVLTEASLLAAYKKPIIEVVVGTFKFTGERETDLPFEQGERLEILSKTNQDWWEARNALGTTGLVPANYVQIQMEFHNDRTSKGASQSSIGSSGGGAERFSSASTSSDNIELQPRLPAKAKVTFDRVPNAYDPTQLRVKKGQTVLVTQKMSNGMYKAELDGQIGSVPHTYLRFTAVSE
Experiment: two-hybrid; bait LexA-BD-CED-2 (pBTM116-Src), prey Gal4-AD fusion (pGAD-GH); constitutively active Src kinase expressed in the yeast; growth on Leu- Trp- His- plates in the screen, retest by beta-galactosidase activity on Leu- Trp- plates with X-Gal

binding: binds
B1: Phosphorylated APR-1/APC, amino acids 1-545, Gal4-AD fusion, in yeast expressing constitutively active Src kinase (domain or fragment, UniProt Q21227 1-545)
chain: MSSSSSDENETTIHRTGSNTGGSGIYSQPRAGSSKRTSNVRHDVSDVDDEEEHYARFREDTAIEVDDAITVLLSSLHFEHKRDIVPTDEDDNKLRELHEKIFALITSESDVNRKRRLKKALPASNCVREQVYYLRRKPSTPPASYYHRLNAALHTIVKESFGEEYRKVATVLGLVEALAEVLILEVHTFGINETNPGEHRNIRKLIANALTNLTYGQIHSKRRLCSYDGFIRCVVRIVIESPNITQVYAGLIRNLSWNADSGMSEALQPTVHALSIAAVHAHTHRFDVTATLSALWNLAGHSVENKRTICDTPNCLKVLASLLSPDARFTSLVDSATGILKYVSQYLANTSTHLELRSLLITRMLTLLKSASFTCVTNTLGAIANLIVKDPHMQQMIRQDMAAVQQLNVLRNSNRDDIRTAVKSVLNTLNQPCSHRYGDMSHSVGGGATGMQMLSEPQLQMQTSHHAYHGTASPRLLSLRATRASPGKYIQPQAQQQLIQTPQVDQRSSSLPRHFAVQRNGFVMAQSYNQQMDQHQQQQMIYQLQ
modifications: phosphotyrosine (constitutively active Src kinase in the yeast; site not stated)
